# Results as given in PubChem BioAssay AID2685 (National Center for Advancing Translational Sciences (NCATS), 2010).
# Some of the results follow. These are further read-outs of the screen, such as a control signal, another cell line or another target. No call is given for them. The list favours compounds with an active or inconclusive main result. The note in brackets gives the kind of curve behind each potency; many fits are weak.
# Test: qHTS Assay for Lipid Storage Modulators in Drosophila S3 Cells;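 for cell number change: cells counted by Cell Tracker Red CMTPX staining in the red channel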
# Details: BODIPY lipid droplet fluorescence, 18-24 h; for cell number change: measured here: cell count max response, cells fed with added oleic acid
# Summary of the method: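 Drosophila S3 cells got compounds at several concentrations plus oleic acid (400 uM solution). Laser-scanning cytometry with 488 nm excitation read lipid droplets at 500-530 nm and cells at 575-640 nm. Percent activity was relative to 20 uM Triacsin C.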
# [1] = measured here: lipid fluorescence (Fed channel) AC50, cells fed with added oleic acid
# [2] = measured here: cell number channel AC50, cells fed with added oleic acid
Compound,cell number change [%],AC50 [1],AC50 [2]
Cc1ccc(C(=O)CC(=O)c2cc(Cl)ccc2O)cc1,-19.4,"2.91 µM [rising, single point]",–
Cc1ccc(C(C)NC(=O)c2cc3cc(Br)ccc3oc2=N)cc1 (configuration not stated),-16.1,–,–
O/N=C(\Cc1cscn1)c1ccc(O)cc1O,–,"0.0058 µM [falling, full curve]",–
Cc1ccc(C)c(COC(=O)c2cc([N+](=O)[O-])ccc2N2CCOCC2)c1,-47.5,–,–
O=C(/C=C/c1ccccc1)NNC(=O)c1ccco1,-32.5,"1.64 µM [falling, partial curve]","9.2 µM [falling, partial curve, poor fit]"
O=C(O)CCNC(=O)C12CC3CC(CC(C3)C1)C2,-17.4,"20.6 µM [falling, partial curve, poor fit]",–
Cc1cc(=O)oc2cc(OCC(=O)N3CC(C)OC(C)C3)ccc12 (configuration not stated),-1.73,"2.31 µM [falling, partial curve]",–
CC1=CCC2C(=O)N(c3ccc(N4CCOCC4)cc3)C(=O)C2C1 (configuration not stated),-11.3,"0.461 µM [falling, partial curve, poor fit]",–
Cc1cc([N+](=O)[O-])ccc1NC(=O)C(C)N1CCN(c2ccccn2)CC1 (configuration not stated),3.11,"0.291 µM [rising, partial curve, poor fit]",–
COc1ccc(OC)c(/C=N\NC(=O)c2ccc(-c3ccccc3)cc2)c1,–,"25.9 µM [falling, single point]",–
Cc1[nH]n(-c2ccccc2)c(=O)c1N=Nc1nccs1,13,–,–
FC(F)(F)c1ccccc1NC(=S)NN1CCOCC1,25.5,"0.00517 µM [rising, full curve, poor fit]",–
NC(=O)c1cccc2c1C(=O)N(C1CCCCC1)C2,5.97,"16.4 µM [rising, partial curve]",–
CCn1c(SCC(=O)N/N=C(\C)c2ccco2)nnc1-c1ccccc1,13.5,–,–
CCCc1c(C(=O)N/N=C/c2c(OC)ccc3ccccc23)nnn1-c1nonc1N,26.3,"5.8 µM [falling, single point]",–
COC(=O)c1c(NC(=O)C2CC(C)=C(C)CC2C(=O)O)sc2c1CCCCC2 (configuration not stated),12.7,"10.3 µM [rising, partial curve, poor fit]",–
Cc1cccc2c(=O)c(-c3ccc4c(c3)OCO4)c(NC(=O)c3ccco3)oc12,-0.472,–,–
COc1cc2[nH]c(=O)n(CCC(=O)NC3CCCC3)c(=O)c2cc1OC,-4.99,"0.184 µM [falling, full curve, poor fit]",–
CC1CCCN(CC(=O)Nc2ccc(S(=O)(=O)N3CCCC3)cc2)C1 (configuration not stated),19.7,"35.5 µM [rising, single point]",–
CCCOc1ccccc1/C=N/NC(=O)C1CC1,9.54,–,–
O=C1N(CC(=O)N2CCc3ccccc32)CCN1Cc1ccccc1Cl,197,"6.51 µM [falling, single point]","29.1 µM [rising, single point]"

Compound,cell number change [%],AC50 [1],AC50 [2]
COc1ccc(CNC(=O)C2CCC(CNS(=O)(=O)c3ccccc3)CC2)cc1 (configuration not stated),1.41,"6.51 µM [rising, single point]",–
COc1ccc(-c2noc(CSc3nnc(-c4ccncc4)n3-c3ccc(F)cc3)n2)cc1OC,–,"0.651 µM [rising, full curve]",–
CCC1CCCCN1CCCn1c(=S)[nH]c2ccccc2c1=O (configuration not stated),13.3,"0.146 µM [falling, full curve, poor fit]",–
CC1=C/C(=N\NC(=S)Nc2cccnc2)CC(C)(C)C1,30.3,–,"7.31 µM [rising, partial curve, poor fit]"
Cc1ccc(NC(=O)c2ccc3c(c2)C(=O)N(c2cc(C)ccc2C)C3=O)nc1,–,"29.1 µM [rising, single point]",–
Cc1cc(C(F)(F)F)nc(SCC(=O)Nc2ccccc2)n1,2.33,"1.3 µM [rising, full curve]",–
CC1CCC(C(C)C)C(OCC(O)CNC(C)(C)C)C1 (configuration not stated),0.966,"6.51 µM [falling, single point]","6.51 µM [falling, single point]"
NC(=O)c1ccccc1OCC(=O)O,22.4,"29.1 µM [rising, single point]",–
CCOC(=O)C(NCc1ccccc1)(NC(=O)c1ccccc1)C(F)(F)F (configuration not stated),-1.73,"3.66 µM [falling, full curve]",–
CCOC(=O)C1CCCN(c2c(Nc3ccc(OCC)cc3)c(=O)c2=O)C1 (configuration not stated),5.52,"0.58 µM [falling, single point]",–
O=c1c2nccnc2[nH]c(=S)n1Cc1ccccc1Cl,10,–,–
COc1ccc([C@]23Cc4cc(OC)c(OC)cc4C(O2)c2c(cc(-c4ccccc4)oc2=O)O3)cc1,20.9,"5.31 µM [rising, single point]",–
Cc1ccc(-c2nn(CC(=O)NCc3ccco3)c(=O)c3ccccc23)cc1,-24.1,–,–
CC1(C)N=C(c2ccc(Cl)cc2Cl)C(=O)N1,18.4,"7.31 µM [falling, partial curve]",–
COc1ccc(C(=O)N/C(=C\c2cn(C)c3ccccc23)C(=O)NCCCn2ccnc2)cc1,-14.2,"6.51 µM [falling, single point]","0.291 µM [rising, single point]"
CN(C)S(=O)(=O)c1c(Cl)cccc1Cl,-25.3,"14.6 µM [falling, single point]","1.16 µM [falling, full curve, poor fit]"
O=C(Nc1nc2ccc([N+](=O)[O-])cc2s1)c1ccco1,-64.8,"0.731 µM [falling, full curve]",–
N=c1sccn1CC(=O)N1CCc2ccccc21,-96.1,"0.92 µM [falling, full curve, poor fit]","29.1 µM [falling, single point]"
O=S(=O)(Nc1cccc2cccnc12)c1ccccc1,-28.9,"1.26 µM [rising, full curve]",–
CCOc1ccc(C(=O)NC(C)C2COc3ccccc3O2)cc1 (configuration not stated),16.5,–,–
CCC(=O)NCCCOc1ccccc1,2.78,"0.13 µM [falling, full curve, poor fit]",–

Compound,cell number change [%],AC50 [1],AC50 [2]
Cc1cc(S(=O)(=O)N2CCN=C2c2ccccc2)c(C)cc1Cl,-33.1,"4.11 µM [falling, full curve]","4.61 µM [falling, full curve, poor fit]"
CCOC(=O)c1cnn(-c2ccc(NS(=O)(=O)c3ccc(Cl)cc3)cc2)c1C(F)(F)F,-43.8,"29.1 µM [falling, single point]","16.4 µM [falling, single point]"
Cc1cc(=O)oc2c(C)c(OCC(=O)NCCCn3ccnc3)ccc12,21.4,–,–
CCCCNS(=O)(=O)c1ccc(NC(=O)Cc2ccc(OC)cc2)cc1,20.5,"29.1 µM [rising, single point]",–
Cc1ccc(S(=O)(=O)NC(=O)Nc2cccc(C)n2)cc1,24.2,"2.91 µM [falling, single point]","2.91 µM [falling, single point]"
COc1cccc(/C=C/C(=O)c2cccc([N+](=O)[O-])c2)c1,-23.2,–,–
C=CCNC(=O)c1ccccc1NC(=O)c1ccccc1SC,-2.55,–,–
COc1ccc(OC)c(CCNC(=O)C2CCN(c3ncnc4c3nc3n4CCCCC3)CC2)c1,-6.6,–,–
CCOC(=O)c1ccccc1OCc1cc(/C=N/NC(=O)c2ccncc2)ccc1OC,18,"2.06 µM [rising, partial curve, poor fit]","0.13 µM [rising, full curve, poor fit]"
CCC(C)N1C(=O)CCC1C(=O)NCc1ccc2c(c1)OCO2 (configuration not stated),-27.7,"6.51 µM [falling, single point]",–
O=[N+]([O-])c1ccccc1CNC1CCCCCC1,-2.53,–,–
COc1ccc(CC(=O)NC2CCN(Cc3nnnn3C(C)(C)C)CC2)cc1OC,–,"16.4 µM [falling, partial curve, poor fit]",–
CC(=O)Oc1ccc(C(=O)NCc2ccco2)cc1,15.6,"29.1 µM [rising, single point]",–
O=C(CSc1nccc(-c2cccs2)n1)Nc1ccccc1,–,"6.51 µM [falling, single point]",–
COc1ccc(Cl)cc1NC(=O)COc1cccc(-n2cnnn2)c1,-159,–,–
O=c1oc(-c2cccs2)nc2c1cnn2-c1ccccc1,37.9,"0.146 µM [falling, full curve, poor fit]","20.6 µM [rising, single point]"
Cc1ccc(N(CC(=O)NCC2CCCO2)C(=O)CCC(=O)Nc2nccs2)cc1 (configuration not stated),8.7,"0.58 µM [rising, single point]",–
CCOC(=O)N1CCN(C(=O)c2ccc(C)c(S(=O)(=O)N3CCCCC3)c2)CC1,-30.2,–,"29.1 µM [falling, single point]"
COc1ccccc1NS(=O)(=O)c1ccc(C(=O)N2CCCCCCC2)cc1,-6.61,"0.517 µM [rising, full curve, poor fit]",–
Cn1cc(C(=O)c2cccc(Cl)c2Cl)cc1C#N,-29.2,"29.1 µM [falling, single point]",–
C[C@H]1CNC(=O)C(=O)N1C[C@H](Cc1ccc(O)cc1)NC(=O)CC12CC3CC(CC(C3)C1)C2,18.9,"6.51 µM [rising, partial curve, poor fit]","4.61 µM [rising, partial curve]"

# Eleven entries out of the list, sorted by heavy-atom count, descending.
Compound,cell number change [%],AC50 [1],AC50 [2]
C[C@H]1CNC(=O)C(=O)N1C[C@H](Cc1ccc(O)cc1)NC(=O)CC12CC3CC(CC(C3)C1)C2,18.9,"6.51 µM [rising, partial curve, poor fit]","4.61 µM [rising, partial curve]"
CCOC(=O)c1ccccc1OCc1cc(/C=N/NC(=O)c2ccncc2)ccc1OC,18,"2.06 µM [rising, partial curve, poor fit]","0.13 µM [rising, full curve, poor fit]"
CCOC(=O)c1cnn(-c2ccc(NS(=O)(=O)c3ccc(Cl)cc3)cc2)c1C(F)(F)F,-43.8,"29.1 µM [falling, single point]","16.4 µM [falling, single point]"
Cc1ccc(N(CC(=O)NCC2CCCO2)C(=O)CCC(=O)Nc2nccs2)cc1 (configuration not stated),8.7,"0.58 µM [rising, single point]",–
CCOC(=O)N1CCN(C(=O)c2ccc(C)c(S(=O)(=O)N3CCCCC3)c2)CC1,-30.2,–,"29.1 µM [falling, single point]"
COc1ccccc1NS(=O)(=O)c1ccc(C(=O)N2CCCCCCC2)cc1,-6.61,"0.517 µM [rising, full curve, poor fit]",–
Cc1cc(=O)oc2c(C)c(OCC(=O)NCCCn3ccnc3)ccc12,21.4,–,–
COc1ccc(Cl)cc1NC(=O)COc1cccc(-n2cnnn2)c1,-159,–,–
C=CCNC(=O)c1ccccc1NC(=O)c1ccccc1SC,-2.55,–,–
O=c1oc(-c2cccs2)nc2c1cnn2-c1ccccc1,37.9,"0.146 µM [falling, full curve, poor fit]","20.6 µM [rising, single point]"
O=[N+]([O-])c1ccccc1CNC1CCCCCC1,-2.53,–,–
